Assay [1] concerns the target S-HA-tagged BICD2, full length (UniProt Q8TD16). As to the kind of experiment: co-IP; HEK293T transfected to express BICD2 and Mock or STAT1; with or without 1 μM RSL3 for 6 h; lysates precipitated with S-protein Agarose beads; immunoblot with anti-FLAG antibody (Fig. 7D).
In assay [2] the target is mutant BICD2 (S615D) (UniProt Q8TD16). Briefly: co-IP; HEK293T co-transfected; 10 μM MG132 for 10 h before collection; lysates precipitated with S-protein Agarose beads (S-tagged BICD2 as bait); immunoblot with anti-FLAG antibody (Fig. 2E, Fig. 6C).
The target of assay [3] is S-HA-tagged BICD2, full length (UniProt Q8TD16). The assay is described as above.
Assay [4] has as its target FLAG-tagged VHL, full length (UniProt P40337). As to the kind of experiment: co-IP; HEK293T co-transfected with GFP-tagged BICD2 and FLAG-tagged VHL constructs; 10 μM MG132 for 10 h before collection; lysates precipitated with anti-FLAG M2 beads; immunoblot with anti-GFP antibody (Fig. 2G).
For assay [5], the target named is FLAG-tagged STAT3 (UniProt P40763). As to the kind of experiment: co-IP; HEK293T co-transfected with a GFP-tagged and a FLAG-tagged protein; lysates precipitated with anti-FLAG antibody; immunoblot with anti-GFP antibody; with or without 1 μM RSL3 for 6 h (Fig. 7C) (Fig. 7B, C, E, H).
The target of assay [6] is T1, FLAG-tagged STAT6 (UniProt P42226).
T1 sequence: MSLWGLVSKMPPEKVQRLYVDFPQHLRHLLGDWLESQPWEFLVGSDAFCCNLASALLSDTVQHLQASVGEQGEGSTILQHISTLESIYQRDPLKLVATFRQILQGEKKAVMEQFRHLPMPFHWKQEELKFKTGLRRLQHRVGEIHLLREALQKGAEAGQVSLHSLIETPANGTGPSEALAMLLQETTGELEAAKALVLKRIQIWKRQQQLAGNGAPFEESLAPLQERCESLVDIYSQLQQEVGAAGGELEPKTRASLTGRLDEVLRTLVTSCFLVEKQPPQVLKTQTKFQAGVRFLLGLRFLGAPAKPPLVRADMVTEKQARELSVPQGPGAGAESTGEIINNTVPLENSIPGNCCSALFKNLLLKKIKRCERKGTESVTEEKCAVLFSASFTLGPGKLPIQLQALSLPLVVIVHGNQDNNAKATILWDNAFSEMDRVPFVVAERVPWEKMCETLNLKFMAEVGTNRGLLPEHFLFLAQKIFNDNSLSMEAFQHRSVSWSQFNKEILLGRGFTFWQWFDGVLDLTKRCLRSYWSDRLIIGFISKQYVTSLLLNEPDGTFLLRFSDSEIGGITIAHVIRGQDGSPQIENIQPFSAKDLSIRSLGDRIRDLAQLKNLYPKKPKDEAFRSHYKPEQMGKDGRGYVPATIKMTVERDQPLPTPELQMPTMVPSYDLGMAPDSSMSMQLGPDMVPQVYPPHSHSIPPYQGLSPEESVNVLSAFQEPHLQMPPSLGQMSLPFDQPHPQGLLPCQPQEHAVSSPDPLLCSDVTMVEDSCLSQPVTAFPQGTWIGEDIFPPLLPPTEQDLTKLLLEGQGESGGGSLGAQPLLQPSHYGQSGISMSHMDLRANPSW
The description is as above.

By UniProt entry, the sequences of proteins in these tests, tags left out. Where a name states a change or a piece, a line headed by the entry shows the natural chain unless it says otherwise.
UniProt Q8TD16: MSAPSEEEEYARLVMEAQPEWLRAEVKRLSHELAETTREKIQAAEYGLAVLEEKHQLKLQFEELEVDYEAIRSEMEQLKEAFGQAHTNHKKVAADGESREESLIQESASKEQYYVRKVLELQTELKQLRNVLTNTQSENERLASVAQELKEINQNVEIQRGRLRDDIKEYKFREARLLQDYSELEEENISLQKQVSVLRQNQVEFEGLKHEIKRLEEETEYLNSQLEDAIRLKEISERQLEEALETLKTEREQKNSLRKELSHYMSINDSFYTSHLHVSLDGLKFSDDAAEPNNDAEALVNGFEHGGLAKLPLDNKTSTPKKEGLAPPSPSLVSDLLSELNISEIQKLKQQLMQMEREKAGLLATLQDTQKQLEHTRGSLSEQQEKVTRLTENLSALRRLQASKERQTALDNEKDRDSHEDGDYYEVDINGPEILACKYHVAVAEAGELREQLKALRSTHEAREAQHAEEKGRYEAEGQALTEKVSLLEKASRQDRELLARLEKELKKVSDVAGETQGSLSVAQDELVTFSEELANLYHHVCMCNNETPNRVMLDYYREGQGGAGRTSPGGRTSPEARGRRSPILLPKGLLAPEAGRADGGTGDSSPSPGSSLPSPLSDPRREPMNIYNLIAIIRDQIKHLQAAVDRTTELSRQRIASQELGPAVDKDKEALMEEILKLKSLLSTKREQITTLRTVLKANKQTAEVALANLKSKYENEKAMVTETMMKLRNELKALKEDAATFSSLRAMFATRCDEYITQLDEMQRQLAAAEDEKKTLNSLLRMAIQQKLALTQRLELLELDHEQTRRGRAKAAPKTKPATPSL
UniProt P40337: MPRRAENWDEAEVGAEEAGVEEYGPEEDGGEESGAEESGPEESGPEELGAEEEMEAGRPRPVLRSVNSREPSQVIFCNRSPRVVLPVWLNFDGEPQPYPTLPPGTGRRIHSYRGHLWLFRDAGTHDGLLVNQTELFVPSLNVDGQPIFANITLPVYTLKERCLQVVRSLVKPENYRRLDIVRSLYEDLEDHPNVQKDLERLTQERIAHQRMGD
UniProt P40763: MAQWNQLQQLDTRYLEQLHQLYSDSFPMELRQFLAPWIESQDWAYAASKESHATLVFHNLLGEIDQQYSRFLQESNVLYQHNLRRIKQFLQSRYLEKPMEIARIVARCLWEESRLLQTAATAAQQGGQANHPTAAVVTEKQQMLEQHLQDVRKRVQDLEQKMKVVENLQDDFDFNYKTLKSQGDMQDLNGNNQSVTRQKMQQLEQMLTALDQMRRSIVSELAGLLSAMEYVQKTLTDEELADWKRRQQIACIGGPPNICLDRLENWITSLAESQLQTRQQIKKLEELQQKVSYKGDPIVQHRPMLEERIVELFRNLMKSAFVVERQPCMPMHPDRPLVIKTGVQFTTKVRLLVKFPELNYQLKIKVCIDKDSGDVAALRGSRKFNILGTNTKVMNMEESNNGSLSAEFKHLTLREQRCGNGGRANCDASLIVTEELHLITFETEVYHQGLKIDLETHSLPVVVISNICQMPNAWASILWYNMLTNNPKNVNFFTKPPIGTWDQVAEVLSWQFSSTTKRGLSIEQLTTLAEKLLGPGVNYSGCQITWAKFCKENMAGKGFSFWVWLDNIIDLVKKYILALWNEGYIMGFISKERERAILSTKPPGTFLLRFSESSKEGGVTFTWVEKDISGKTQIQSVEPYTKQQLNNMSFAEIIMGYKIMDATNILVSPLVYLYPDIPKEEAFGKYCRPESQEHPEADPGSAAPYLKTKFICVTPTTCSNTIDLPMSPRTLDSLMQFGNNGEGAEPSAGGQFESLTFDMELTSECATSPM
UniProt P42224: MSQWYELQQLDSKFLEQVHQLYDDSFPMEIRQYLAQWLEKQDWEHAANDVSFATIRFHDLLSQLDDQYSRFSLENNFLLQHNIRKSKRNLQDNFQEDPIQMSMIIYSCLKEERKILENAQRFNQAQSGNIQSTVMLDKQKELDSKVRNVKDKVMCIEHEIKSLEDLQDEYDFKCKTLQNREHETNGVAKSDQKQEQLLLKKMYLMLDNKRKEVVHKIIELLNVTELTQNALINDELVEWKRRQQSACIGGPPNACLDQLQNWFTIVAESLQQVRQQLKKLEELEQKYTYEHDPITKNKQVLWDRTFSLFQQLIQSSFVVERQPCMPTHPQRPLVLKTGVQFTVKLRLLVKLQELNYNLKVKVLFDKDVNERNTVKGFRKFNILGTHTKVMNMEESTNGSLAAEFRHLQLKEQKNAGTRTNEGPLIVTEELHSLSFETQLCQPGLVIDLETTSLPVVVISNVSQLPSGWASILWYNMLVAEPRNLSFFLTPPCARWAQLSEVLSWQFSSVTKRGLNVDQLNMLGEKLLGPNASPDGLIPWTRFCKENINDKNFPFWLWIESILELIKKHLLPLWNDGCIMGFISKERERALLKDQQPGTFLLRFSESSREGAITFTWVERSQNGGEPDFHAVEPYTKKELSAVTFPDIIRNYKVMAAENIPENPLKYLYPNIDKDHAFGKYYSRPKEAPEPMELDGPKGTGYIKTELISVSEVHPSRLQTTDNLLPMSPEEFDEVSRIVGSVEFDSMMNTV

Assay [7] has as its target FLAG-tagged STAT1, full length (UniProt P42224). The assay is described as above.
Assay [8] has as its target T2, FLAG-tagged STAT4 (UniProt Q14765).
T2 sequence: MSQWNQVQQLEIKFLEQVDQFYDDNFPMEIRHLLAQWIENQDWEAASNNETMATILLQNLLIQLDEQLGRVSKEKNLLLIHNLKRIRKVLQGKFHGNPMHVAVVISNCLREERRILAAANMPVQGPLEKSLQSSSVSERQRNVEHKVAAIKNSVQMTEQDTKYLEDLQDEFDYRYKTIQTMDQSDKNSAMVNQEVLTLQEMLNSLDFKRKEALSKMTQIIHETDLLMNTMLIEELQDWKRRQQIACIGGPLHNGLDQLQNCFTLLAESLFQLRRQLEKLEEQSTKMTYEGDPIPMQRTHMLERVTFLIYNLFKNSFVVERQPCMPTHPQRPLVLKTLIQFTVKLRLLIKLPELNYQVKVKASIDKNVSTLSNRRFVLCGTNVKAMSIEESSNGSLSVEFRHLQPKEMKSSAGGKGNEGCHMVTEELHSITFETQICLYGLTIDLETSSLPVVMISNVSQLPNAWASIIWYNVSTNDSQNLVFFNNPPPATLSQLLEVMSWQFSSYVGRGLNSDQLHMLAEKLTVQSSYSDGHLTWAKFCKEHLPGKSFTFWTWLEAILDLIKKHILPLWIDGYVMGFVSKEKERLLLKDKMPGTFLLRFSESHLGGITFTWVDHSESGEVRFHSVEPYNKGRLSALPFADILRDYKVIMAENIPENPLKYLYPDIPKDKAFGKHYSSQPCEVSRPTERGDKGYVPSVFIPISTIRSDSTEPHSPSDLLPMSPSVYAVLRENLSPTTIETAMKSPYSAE
The assay is described as above.

Assay [9] has as its target FLAG-tagged BICD2, full length (UniProt Q8TD16). Described as above.
Assay [10] has as its target BICD2 (construct of Fig. 2C and Fig. 6B, tag not given) (UniProt Q8TD16). As to the kind of experiment: co-IP; HEK293T transfected with the indicated plasmids; with or without 10 μM MG132 for 10 h (Fig. 2C) or 10 μM Vemurafenib for 12 h (Fig. 6B); lysis buffer 10% glycerol, 0.5% NP-40, 150 mM NaCl, 0.1 mM EDTA; precipitated with 'appropriate antibodies'; immunoblot.

No constants are given. Whether binding was seen depends on the method and setting. Binding seen in cells or lysates may run through a third protein. Some entries that bind do so weakly or less than the wild type. For some of these results: Where a sequence is shown, tags or fusion partners need not be part of it.

With “FLAG-tagged STAT1, full length (from UniProt P42224 1-750)”, the binding entry in [1] is “binds”.

On to “FLAG-tagged VHL, full length (from UniProt P40337 1-213)”, for which the binding result is “binds weakly” in assay [2] and “binds” in assay [3].

Turning to “GFP-tagged BICD2 (from UniProt Q8TD16 1-824)”, the binding entry in assay [4], in assay [5], in [6], in [7] and in assay [8] was “binds” in each case.

“GFP-tagged STAT1 (from UniProt P42224 1-750)”: in assay [9], the binding result is on record as “binds”.

“VHL (construct of Fig. 2C and Fig. 6B, tag not told in the text) (from UniProt P40337 1-213)”: the binding result in assay [10] is listed as “binds”.

Source of the values: article PMC10575931.
